# Results as given in PubChem BioAssay AID504467 (National Center for Advancing Translational Sciences (NCATS), 2011).
# Hit rate of the full screen: of about 330,000 compounds, about 7,700 (2.3%) were called active. The shares of active, inactive and inconclusive entries below differ from those in the screen. Calls follow the shape of the dose curve; as a rule, active = well fitted inhibition curve with a large enough effect; inconclusive = small, poorly fitted or top-dose-only effect, or effect the other way; inactive = flat fitted curve, though single readings scatter. Where the call is inconclusive, the potency comes from a doubtful curve fit.
# Assay: qHTS screen for small molecules that inhibit ELG1-dependent DNA repair in human embryonic kidney (HEK293T) cells expressing luciferase-tagged ELG1; also: nearly all actives have a fitted effect of over 55% in size
# Details: HEK293T ELG1-luciferase reporter, luminescence, 16 h, DNA damage induced by 5-fluorouridine; activity change, negative = inhibition: at 46.1 µM (top of the series)
# Outline: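 Reporter activity after DNA damage by 5-fluorouridine is monitored. Compound-treated cells incubate 16 hr at 37 °C, then ONE-Glo is added for 30 min before luminescence reading.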
# % is scaled to controls: 0 for no effect and ±100 for the full control effect; potency is read from the fitted curve at half-maximal effect.
SMILES,"activity change, negative = inhibition",Potency
O=[N+]([O-])c1ccc(CSc2nnc(SCc3ccc(Cl)cc3)s2)cc1,inactive: 23.4%,–
COc1ccc(CCNC(=O)c2cc(C(=O)c3cc(C)ccc3O)cn(CCc3ccc(OC)cc3)c2=O)cc1,–,active: 13 µM
Cc1cccc(-n2c(=S)[nH]c3c(oc4ccccc43)c2=O)c1,–,"inconclusive: 32.6 µM [activator, partial curve, poor fit]"
CCOC(=O)C1=C(O)/C(=C\c2ccc(CNC(=O)C(=O)Nc3ccccc3)o2)N=C1C,inactive: 1.65%,–
CN(C)S(=O)(=O)c1ccc(Cl)c(NC(=O)CN2CCN(Cc3ccc4c(c3)OCO4)CC2)c1,–,active: 20.6 µM
O=S(=O)(c1ccc(Cl)cc1)c1cc(O)ccc1O,–,"inconclusive: 10 µM [inhibitor, partial curve, poor fit]"
CCOC(=O)Cc1csc(N/N=C/c2ccccc2)n1,–,"inconclusive: 18.4 µM [activator, partial curve]"
Cn1c(=O)c2c(nc(Cl)n2CCOc2ccccc2)n(C)c1=O,–,active: 9.2 µM
CCCC(=O)Nc1ccc(NC(=O)C23CC4CC(CC(C4)C2)C3)cn1,–,"inconclusive: 23.1 µM [activator, single point]"
CCc1cc2c(COC(=O)c3c(C)noc3C)cc(=O)oc2cc1O,inactive: -18.5%,–
Cc1cc(C(=O)Nc2ccccc2C(=O)O)oc1C,–,"inconclusive: 16.4 µM [activator, single point]"
CCCCn1nnnc1SCC(=O)NNC(=O)C1CCCCC1,–,"inconclusive: 0.0052 µM [inhibitor, full curve, poor fit]"
O=c1oc(-c2cccs2)nc2sc3c(c12)CCCC3,–,"inconclusive: 13 µM [activator, partial curve]"
CCOC(=O)c1sc(=S)n(C)c1NC(=O)c1ccc(F)cc1,–,"inconclusive: 16.4 µM [inhibitor, single point]"
CCCCNc1ccc(C(CC(N)=O)NC(=O)Cc2ccc(Br)cc2)cc1[N+](=O)[O-] (centres undefined),–,"inconclusive: 29.1 µM [activator, single point]"
COc1ccc(S(=O)(=O)n2nc(-c3ccc(Cl)cc3)cc2N)cc1,–,"inconclusive: 25.9 µM [inhibitor, partial curve, poor fit]"
O=C(c1cc(F)ccc1F)N1CCC(N2CCC(C(=O)N3CCCC3)CC2)CC1,–,"inconclusive: 23.1 µM [activator, partial curve, poor fit]"
C=Cn1cc[n+](CC(=O)c2ccc(Cl)c(Cl)c2)c1,inactive: -17.4%,–
N#Cc1ccccc1S(=O)(=O)N1CCN(C(=O)c2cc(-c3ccccc3)nn2-c2ccccc2)CC1,–,"inconclusive: 4.61 µM [inhibitor, full curve]"

# One compound at a time, from the list above. Order of values: activity change, negative = inhibition | Potency
# Cc1cccc(-n2c(=S)[nH]c3c(oc4ccccc43)c2=O)c1 as listed: – | inconclusive: 32.6 µM [activator, partial curve, poor fit]
# O=S(=O)(c1ccc(Cl)cc1)c1cc(O)ccc1O as listed: – | inconclusive: 10 µM [inhibitor, partial curve, poor fit]
